Results are given in words; binding and its absence hold for the method and conditions named. Binding seen in cells or lysates may run through a third protein. Some entries that bind do so weakly or less than the wild type. Where a sequence is shown, tags or fusion partners need not be part of it.
Key:
FLAG-PGK1 [1] = target: T1, FLAG-PGK1 (UniProt P00558); assay: co-IP; PGK1-overexpressing cells under normal (21%) or lower (1%) oxygen for 24 h, or hypoxia 24 h then normoxia 6 h; precipitation of PGK1, Western blotting for PRAS40 and Beclin1
T1 sequence: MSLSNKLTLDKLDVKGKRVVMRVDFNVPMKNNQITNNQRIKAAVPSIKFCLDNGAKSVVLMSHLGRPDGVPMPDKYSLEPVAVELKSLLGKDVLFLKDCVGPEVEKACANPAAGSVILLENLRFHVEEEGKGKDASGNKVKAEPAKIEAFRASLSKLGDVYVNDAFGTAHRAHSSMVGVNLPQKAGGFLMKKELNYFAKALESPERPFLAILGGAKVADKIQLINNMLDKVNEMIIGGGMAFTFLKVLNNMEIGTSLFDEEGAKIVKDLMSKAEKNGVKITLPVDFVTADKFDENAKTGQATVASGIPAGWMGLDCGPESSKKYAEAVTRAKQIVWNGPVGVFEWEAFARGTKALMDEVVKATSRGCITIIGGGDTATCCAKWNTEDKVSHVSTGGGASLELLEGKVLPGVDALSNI

The chains behind the UniProt entries cited, without tags or fusion partners.
UniProt Q14457: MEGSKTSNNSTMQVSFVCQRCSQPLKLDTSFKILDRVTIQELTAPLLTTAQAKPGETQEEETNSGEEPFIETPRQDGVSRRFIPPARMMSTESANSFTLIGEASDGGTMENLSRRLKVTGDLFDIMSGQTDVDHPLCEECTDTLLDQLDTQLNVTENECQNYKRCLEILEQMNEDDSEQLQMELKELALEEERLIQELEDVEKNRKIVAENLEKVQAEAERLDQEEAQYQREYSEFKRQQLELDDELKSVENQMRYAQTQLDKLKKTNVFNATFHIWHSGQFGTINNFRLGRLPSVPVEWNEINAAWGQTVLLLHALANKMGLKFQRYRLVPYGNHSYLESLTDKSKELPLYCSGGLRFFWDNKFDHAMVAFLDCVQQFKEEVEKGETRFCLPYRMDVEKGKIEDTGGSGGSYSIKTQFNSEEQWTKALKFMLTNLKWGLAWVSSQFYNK

FLAG-PGK1 [2] = target: T1, FLAG-PGK1; assay: co-IP; FLAG-PGK1 and Myc-PRAS40 co-transfected into HEK293T cells; anti-FLAG precipitation, 4 °C overnight, Western blotting

Substance | binding (FLAG-PGK1 [1]) | binding (FLAG-PGK1 [2])
Beclin1, endogenous (from UniProt Q14457 1-450) | binds | 
Myc-PRAS40 (from UniProt Q96B36 1-256) |  | binds
PRAS40, endogenous (from UniProt Q96B36 1-256) | binds | 
